These are yes or no findings as the source states them, for the method shown. Some entries that bind do so weakly or less than the wild type. Sequences can lack the tags named with a protein.
Target: T1, mouse PVRIG-Fc protein (mouse)
T1 sequence: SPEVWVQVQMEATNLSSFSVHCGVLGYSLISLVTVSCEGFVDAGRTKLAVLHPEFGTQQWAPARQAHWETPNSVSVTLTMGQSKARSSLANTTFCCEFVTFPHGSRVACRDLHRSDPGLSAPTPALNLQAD
Experiment: BLI (ForteBio)

binding: binds
B1: ADI-56249 (antibody, V domains shown)
VH: QVQLVQSGAEVKKPGSSVKVSCKASGGTFSTFAISWVRQAPGQGLEWMGDIIPIFGSNYAQKFQGRVTITADESTSTAYMELSSLRSEDTAVYYCARGPLEGKVSPFDIWGQGTMVTVSS
VL: DIVMTQSPLSLPVTPGEPASISCRSSQSLLHSTGYNYLDWYLQKPGQSPQLLIYVGSTRASGVPDRFSGSGSGTDFTLKISRVEAEDVGVYYCMQERQFPITFGGGTKVEIK
